{
  "source": "the supplement of paper PMC9433722",
  "key": {"Saos-2": {"system": "Saos-2", "experiment": "cell viability (CCK-8) relative to DMSO control (% of control); higher = less cytotoxic", "conditions": "10 µM; 48 h"}, "U2OS": {"system": "U2OS", "experiment": "cell viability (CCK-8) relative to DMSO control (% of control); higher = less cytotoxic", "conditions": "10 µM; 48 h"}},
  "note": "The list shows a part of the results. Many values rest on one well or one pass, so single values are uncertain.",
  "data": [
    {"smiles": "CC(C)c1cccc(C(C)C)c1O", "note": "[Propofol]", "values": [
      {"measurement": "cell viability", "setting": "Saos-2", "value": 59.5},
      {"measurement": "cell viability", "setting": "U2OS", "value": 105}
    ]},
    {"smiles": "Cl[C@H]1[C@H](Cl)[C@@H](Cl)[C@@H](Cl)[C@H](Cl)[C@H]1Cl", "note": "[Lindane]", "values": [
      {"measurement": "cell viability", "setting": "Saos-2", "value": 108},
      {"measurement": "cell viability", "setting": "U2OS", "value": 109}
    ]},
    {"smiles": "O=C(O)CCCc1ccc(N(CCCl)CCCl)cc1", "note": "[Chlorambucil]", "values": [
      {"measurement": "cell viability", "setting": "Saos-2", "value": 63.6},
      {"measurement": "cell viability", "setting": "U2OS", "value": 94.5}
    ]},
    {"smiles": "O=P1(NCCCl)OCCCN1CCCl", "note": "(stereo unspecified) [Ifosfamide]", "values": [
      {"measurement": "cell viability", "setting": "Saos-2", "value": 68.2},
      {"measurement": "cell viability", "setting": "U2OS", "value": 101}
    ]},
    {"smiles": "C=CCN1C[C@H](C(=O)N(CCCN(C)C)C(=O)NCC)C[C@@H]2c3cccc4[nH]cc(c34)C[C@H]21", "note": "[Cabergoline]", "values": [
      {"measurement": "cell viability", "setting": "Saos-2", "value": 57.4},
      {"measurement": "cell viability", "setting": "U2OS", "value": 122}
    ]},
    {"smiles": "C=C1C[C@@H]2[C@H](CC[C@]3(C)C(=O)CC[C@@H]23)[C@@]2(C)C=CC(=O)C=C12", "note": "[Exemestane]", "values": [
      {"measurement": "cell viability", "setting": "Saos-2", "value": 54.7},
      {"measurement": "cell viability", "setting": "U2OS", "value": 138}
    ]},
    {"smiles": "CCOC(=O)CC(SP(=S)(OC)OC)C(=O)OCC", "note": "(stereo unspecified) [Malathion]", "values": [
      {"measurement": "cell viability", "setting": "Saos-2", "value": 110},
      {"measurement": "cell viability", "setting": "U2OS", "value": 94.9}
    ]},
    {"smiles": "CN(C)C(=O)Oc1ccc[n+](C)c1", "note": "[Pyridostigmine Bromide]", "values": [
      {"measurement": "cell viability", "setting": "Saos-2", "value": 107},
      {"measurement": "cell viability", "setting": "U2OS", "value": 94.2}
    ]}
  ]
}
